Experiment [1] has as its target Myosin heavy chain 9 (MYH9), endogenous in MDA-231 cells (human (endogenous in MDA-MB-231)) (UniProt P35579). As to the kind of experiment: co-IP; endogenous proteins in MDA-231 cells.
The target in experiment [2] is T1, Transmembrane protein 120B (TMEM120B), endogenous (human (endogenous in MDA-MB-231)) (UniProt A0PK00).
T1 sequence: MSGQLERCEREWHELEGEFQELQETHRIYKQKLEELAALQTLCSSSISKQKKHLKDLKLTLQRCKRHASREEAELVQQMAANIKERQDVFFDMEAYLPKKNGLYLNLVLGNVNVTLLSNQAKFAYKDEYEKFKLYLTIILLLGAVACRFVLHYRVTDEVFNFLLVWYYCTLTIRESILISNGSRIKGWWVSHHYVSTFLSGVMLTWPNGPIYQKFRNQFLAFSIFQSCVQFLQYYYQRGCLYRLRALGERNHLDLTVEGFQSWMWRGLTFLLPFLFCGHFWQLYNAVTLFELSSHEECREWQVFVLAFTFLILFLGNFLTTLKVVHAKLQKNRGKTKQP
The experiment can be described thus: co-IP; endogenous proteins in MDA-231 cells.

By UniProt entry, the sequences of proteins in these tests, tags left out.
UniProt P35579: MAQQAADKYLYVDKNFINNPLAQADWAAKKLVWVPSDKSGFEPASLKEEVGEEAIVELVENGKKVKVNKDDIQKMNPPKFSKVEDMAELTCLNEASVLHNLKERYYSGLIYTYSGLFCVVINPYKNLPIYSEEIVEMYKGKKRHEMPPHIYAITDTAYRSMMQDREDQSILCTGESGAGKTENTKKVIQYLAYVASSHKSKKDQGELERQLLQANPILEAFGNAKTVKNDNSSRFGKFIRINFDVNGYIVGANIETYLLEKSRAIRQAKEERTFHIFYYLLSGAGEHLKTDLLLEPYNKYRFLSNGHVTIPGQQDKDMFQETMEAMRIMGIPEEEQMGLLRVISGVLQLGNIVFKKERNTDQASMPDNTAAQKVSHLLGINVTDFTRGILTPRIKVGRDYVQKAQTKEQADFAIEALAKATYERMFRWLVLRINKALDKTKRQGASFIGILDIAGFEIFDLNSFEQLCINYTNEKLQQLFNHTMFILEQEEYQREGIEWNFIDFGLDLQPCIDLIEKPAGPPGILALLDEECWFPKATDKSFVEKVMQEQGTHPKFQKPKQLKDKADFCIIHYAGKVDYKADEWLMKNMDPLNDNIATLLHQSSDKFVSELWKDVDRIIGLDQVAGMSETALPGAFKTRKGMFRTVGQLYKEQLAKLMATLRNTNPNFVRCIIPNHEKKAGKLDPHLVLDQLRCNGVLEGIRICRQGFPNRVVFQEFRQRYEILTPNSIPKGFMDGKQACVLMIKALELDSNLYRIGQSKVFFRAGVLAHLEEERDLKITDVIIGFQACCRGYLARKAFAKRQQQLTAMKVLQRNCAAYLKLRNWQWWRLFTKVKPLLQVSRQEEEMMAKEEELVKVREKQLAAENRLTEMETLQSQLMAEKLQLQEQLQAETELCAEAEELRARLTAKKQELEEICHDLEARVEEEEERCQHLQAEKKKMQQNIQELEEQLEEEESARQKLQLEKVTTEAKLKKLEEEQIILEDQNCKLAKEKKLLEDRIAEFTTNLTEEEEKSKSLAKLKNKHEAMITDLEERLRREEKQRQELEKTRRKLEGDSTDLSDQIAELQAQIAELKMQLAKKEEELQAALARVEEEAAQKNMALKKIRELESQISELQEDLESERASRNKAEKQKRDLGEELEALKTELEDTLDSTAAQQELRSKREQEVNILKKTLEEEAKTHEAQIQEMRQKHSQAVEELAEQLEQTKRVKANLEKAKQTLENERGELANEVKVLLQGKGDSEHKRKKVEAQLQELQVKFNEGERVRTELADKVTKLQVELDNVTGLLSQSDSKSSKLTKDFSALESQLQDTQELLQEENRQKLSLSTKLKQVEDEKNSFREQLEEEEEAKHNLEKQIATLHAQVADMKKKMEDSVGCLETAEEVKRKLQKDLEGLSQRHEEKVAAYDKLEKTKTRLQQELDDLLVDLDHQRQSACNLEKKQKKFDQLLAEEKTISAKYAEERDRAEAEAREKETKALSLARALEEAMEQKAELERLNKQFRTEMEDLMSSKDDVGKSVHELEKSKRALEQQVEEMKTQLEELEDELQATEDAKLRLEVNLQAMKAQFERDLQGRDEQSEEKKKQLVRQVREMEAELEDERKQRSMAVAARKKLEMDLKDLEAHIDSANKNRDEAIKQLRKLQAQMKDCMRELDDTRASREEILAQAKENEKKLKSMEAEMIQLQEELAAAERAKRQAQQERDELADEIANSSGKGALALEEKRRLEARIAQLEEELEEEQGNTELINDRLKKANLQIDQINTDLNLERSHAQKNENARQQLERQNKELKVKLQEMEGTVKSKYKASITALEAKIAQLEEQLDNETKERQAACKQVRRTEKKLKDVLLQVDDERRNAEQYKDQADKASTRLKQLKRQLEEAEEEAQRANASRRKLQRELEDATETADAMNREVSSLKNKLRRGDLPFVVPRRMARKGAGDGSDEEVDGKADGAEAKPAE
UniProt Q8IWT3: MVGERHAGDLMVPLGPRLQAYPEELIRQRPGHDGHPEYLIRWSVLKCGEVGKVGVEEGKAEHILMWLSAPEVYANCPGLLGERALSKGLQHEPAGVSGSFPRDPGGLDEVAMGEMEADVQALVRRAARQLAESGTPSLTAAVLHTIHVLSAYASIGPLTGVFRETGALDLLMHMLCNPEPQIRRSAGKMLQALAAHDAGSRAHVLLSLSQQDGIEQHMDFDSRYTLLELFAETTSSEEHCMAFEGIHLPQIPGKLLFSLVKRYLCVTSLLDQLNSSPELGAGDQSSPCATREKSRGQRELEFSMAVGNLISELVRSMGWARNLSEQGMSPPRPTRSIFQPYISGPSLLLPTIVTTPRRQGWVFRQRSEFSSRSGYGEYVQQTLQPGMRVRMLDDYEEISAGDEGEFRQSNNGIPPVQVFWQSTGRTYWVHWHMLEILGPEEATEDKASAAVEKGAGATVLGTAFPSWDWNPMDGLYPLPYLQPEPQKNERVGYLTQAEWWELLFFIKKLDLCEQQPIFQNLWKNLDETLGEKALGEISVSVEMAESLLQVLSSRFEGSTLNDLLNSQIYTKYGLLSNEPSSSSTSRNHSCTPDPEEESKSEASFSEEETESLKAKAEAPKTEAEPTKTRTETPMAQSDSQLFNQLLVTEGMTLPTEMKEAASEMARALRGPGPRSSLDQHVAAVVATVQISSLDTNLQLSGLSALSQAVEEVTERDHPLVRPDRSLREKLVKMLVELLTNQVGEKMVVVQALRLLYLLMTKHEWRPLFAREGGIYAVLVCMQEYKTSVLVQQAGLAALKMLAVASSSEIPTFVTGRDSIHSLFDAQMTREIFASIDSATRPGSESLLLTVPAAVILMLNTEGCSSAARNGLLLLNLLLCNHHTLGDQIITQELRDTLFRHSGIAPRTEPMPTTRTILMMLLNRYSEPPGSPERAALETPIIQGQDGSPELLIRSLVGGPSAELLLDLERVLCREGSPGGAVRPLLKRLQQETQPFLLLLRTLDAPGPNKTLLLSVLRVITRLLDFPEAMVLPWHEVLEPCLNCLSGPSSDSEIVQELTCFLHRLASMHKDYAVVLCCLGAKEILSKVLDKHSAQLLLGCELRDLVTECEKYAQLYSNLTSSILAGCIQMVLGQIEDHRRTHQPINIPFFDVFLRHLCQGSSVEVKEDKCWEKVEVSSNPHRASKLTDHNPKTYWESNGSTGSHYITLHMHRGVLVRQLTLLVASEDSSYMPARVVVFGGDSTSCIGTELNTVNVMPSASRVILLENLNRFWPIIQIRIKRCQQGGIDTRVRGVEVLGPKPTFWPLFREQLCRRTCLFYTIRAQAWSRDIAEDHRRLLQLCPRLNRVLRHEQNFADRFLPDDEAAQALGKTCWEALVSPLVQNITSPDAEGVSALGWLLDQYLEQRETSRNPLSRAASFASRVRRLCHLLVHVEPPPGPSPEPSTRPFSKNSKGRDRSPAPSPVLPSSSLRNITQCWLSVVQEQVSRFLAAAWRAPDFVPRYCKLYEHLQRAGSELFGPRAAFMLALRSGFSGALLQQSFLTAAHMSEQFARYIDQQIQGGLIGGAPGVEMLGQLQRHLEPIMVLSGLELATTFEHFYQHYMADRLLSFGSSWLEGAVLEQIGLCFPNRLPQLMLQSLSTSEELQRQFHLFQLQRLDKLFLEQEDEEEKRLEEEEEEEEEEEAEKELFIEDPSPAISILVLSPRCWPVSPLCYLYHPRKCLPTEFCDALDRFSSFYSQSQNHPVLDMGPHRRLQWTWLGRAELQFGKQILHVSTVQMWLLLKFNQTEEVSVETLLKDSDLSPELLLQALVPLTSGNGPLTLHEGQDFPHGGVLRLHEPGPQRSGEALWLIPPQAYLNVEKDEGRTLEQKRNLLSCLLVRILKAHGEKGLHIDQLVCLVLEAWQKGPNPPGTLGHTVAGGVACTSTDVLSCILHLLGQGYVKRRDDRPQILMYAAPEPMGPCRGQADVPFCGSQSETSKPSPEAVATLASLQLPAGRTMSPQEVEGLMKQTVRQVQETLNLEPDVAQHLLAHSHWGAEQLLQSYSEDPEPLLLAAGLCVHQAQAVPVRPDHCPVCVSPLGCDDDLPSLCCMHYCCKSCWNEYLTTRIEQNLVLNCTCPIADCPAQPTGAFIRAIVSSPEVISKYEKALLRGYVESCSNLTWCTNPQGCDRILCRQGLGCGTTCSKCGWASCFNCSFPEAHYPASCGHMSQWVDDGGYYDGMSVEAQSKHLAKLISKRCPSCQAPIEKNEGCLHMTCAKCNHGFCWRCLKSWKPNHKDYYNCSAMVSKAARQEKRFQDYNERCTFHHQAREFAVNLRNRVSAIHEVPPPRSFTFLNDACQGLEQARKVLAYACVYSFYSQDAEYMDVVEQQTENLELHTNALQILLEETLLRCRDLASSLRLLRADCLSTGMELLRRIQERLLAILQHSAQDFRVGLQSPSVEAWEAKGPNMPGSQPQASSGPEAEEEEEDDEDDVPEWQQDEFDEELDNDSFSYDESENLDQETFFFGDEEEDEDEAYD
UniProt Q9GZV5: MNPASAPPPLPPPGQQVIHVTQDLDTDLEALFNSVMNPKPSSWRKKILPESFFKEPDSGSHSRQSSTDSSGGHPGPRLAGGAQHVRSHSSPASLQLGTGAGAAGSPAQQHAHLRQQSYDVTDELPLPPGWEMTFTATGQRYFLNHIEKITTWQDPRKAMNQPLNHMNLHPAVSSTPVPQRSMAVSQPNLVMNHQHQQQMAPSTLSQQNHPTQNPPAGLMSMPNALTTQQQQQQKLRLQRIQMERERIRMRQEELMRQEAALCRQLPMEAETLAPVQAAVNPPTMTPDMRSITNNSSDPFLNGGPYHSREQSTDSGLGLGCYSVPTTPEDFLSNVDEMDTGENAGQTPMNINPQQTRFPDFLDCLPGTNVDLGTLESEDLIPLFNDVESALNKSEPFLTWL

The target of experiment [3] is Myosin heavy chain 9 (MYH9) in SK-BR-3 cells (human (endogenous in SK-BR-3)) (UniProt P35579). The experiment can be described thus: co-IP; SK-BR-3 cells overexpressing TMEM120B and CUL9 in different doses.
Experiment [4] deals with T2, TMEM120B-Myc (pCMV6-TMEM120B-Myc), full length (human) (UniProt A0PK00).
T2 sequence: T1 sequence
The experiment is described as above.

The target in experiment [5] is T2, TMEM120B-Myc (pCMV6-TMEM120B-Myc), full length (human). The experiment can be described thus: co-IP; SK-BR-3 cells transfected with TMEM120B or MYH9 plasmids (wild type or deletion mutants).
For experiment [6], the target named is T1, Transmembrane protein 120B (TMEM120B), endogenous (human (endogenous in MDA-MB-231)). The experiment can be described thus: co-IP; endogenous proteins; cell line not stated (Fig. S5A).

Results are given in words; binding and its absence hold for the method and conditions named. Binding seen in cells or lysates may run through a third protein. Some binding calls cover weakened binding; strength is not graded here. For some of these results: Tags and fused reporters may be left off the sequences shown.

As for “CUL9, endogenous in MDA-231 cells (from UniProt Q8IWT3 1-2517)”, the binding result in experiment [1] and in experiment [2] was “binds” throughout.

On to “CUL9-HA (pCMV6-CUL9-HA) (from UniProt Q8IWT3 1-2517)”, for which, in experiment [3], the binding entry is on record as “binds”.

Turning to “Myosin heavy chain 9 (MYH9) in SK-BR-3 cells (from UniProt P35579 1-1960)”, the binding entry in experiment [4] and in experiment [5] was “binds” in each case.

With “Myosin heavy chain 9 (MYH9), endogenous in MDA-231 cells (from UniProt P35579 1-1960)”, the binding result in experiment [2] was “binds”.

In the case of “Transcriptional coactivator with PDZ-binding motif (TAZ), endogenous (from UniProt Q9GZV5 1-400)”, in experiment [6], the binding entry is on record as “no binding”.

Source of the values: paper PMC10949598.
